Data published in publication PMC12254500.
Results are given in words; binding and its absence hold for the method and conditions named. In cells and extracts the contact can be indirect. A result given as binding can be weak or reduced; the word gives no strength.

Amino acid sequences for entries named in this document (tags omitted). A change or cut given only in a name is not applied to a line headed by its entry.
UniProt Q9UHY1: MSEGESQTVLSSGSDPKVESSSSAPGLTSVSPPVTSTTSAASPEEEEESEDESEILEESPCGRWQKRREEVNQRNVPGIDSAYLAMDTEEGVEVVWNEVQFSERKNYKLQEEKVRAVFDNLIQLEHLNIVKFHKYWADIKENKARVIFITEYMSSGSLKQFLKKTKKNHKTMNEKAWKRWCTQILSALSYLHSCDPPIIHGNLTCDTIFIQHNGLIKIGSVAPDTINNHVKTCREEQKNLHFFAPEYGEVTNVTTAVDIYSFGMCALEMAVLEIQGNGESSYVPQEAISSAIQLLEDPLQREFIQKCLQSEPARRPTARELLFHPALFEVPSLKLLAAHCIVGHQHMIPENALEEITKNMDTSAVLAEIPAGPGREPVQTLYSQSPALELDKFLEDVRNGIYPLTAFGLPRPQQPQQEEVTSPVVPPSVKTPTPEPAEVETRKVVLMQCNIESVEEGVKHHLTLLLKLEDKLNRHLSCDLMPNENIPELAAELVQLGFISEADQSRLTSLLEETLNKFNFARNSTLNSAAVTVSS
UniProt Q9NSY0: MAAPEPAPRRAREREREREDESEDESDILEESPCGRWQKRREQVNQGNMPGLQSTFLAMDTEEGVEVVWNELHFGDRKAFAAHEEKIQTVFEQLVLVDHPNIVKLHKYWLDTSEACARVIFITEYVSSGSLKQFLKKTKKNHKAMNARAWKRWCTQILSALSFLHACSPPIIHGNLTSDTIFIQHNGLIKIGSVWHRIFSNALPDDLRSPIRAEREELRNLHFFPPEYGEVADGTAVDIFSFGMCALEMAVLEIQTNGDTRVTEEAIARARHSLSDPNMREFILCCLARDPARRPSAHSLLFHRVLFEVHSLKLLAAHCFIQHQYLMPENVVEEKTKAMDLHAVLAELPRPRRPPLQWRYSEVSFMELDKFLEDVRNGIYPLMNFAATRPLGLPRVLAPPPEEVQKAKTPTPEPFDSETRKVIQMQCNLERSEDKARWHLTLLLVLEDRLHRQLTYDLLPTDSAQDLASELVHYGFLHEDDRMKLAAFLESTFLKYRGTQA

Biological target: Flag-NRBP1 (full-length NRBP1) (human) (UniProt Q9UHY1)
Test: co-IP; HEK293T cells; Flag antibody used to pull down Flag-NRBP1; co-precipitated NRBP1 or NRBP2 variants by blot; CHAPS-based buffer

| Substance | binding |
| --- | --- |
| full-length NRBP2 mutant lacking the NRB motif (from UniProt Q9NSY0) | binds |
| full-length NRBP2 mutant lacking the dimerization region (from UniProt Q9NSY0) | binds |
